Experimental data: patent publication US20250109170 (published 2025)
Non-standard residues stand in square brackets, D forms with d. dPhe(4-Cl) = N[C@H](Cc1ccc(Cl)cc1)C(=O)O; d2Nal = N[C@H](Cc1ccc2ccccc2c1)C(=O)O; d3Pal = N[C@H](Cc1cccnc1)C(=O)O

Legend:
[1] = general procedure: peptide synthesis; 2-chlorotrityl chloride; DIC/HOBt or DIC/Oxyma (SPPS); EDC·HCl/HOAt/DIEA (fragment coupling); conditions: whole synthesis, scale 120 mmol, TFA salt
[2] = general procedure: peptide synthesis; Rink amide MBHA resin; 2-chlorotrityl chloride resin; DIC/HOBt or DIC/Oxyma (SPPS); EDC·HCl/HOAt/DIEA (fragment coupling); conditions: whole synthesis, scale of the general procedure 10 mmol to 120 mmol (SPPS), 2.55 to 34.04 mmol (fragment cou, TFA salt (crude, fragments)), acetate (GNA·2AcOH) final
[3] = general procedure: peptide synthesis; rink amide MBHA; DIC/HOBt or DIC/Oxyma (SPPS); EDC·HCl/HOAt/DIEA (fragment coupling); conditions: whole synthesis, scale 20 mmol, TFA salt

Substance	crude mass [1] [g]	crude HPLC purity [2] [%]	crude yield [2] [%]	crude mass [3] [g]
Ac-[d2Nal][dPhe(4-Cl)][d3Pal]S-OH	76.5	95.5	94.6	–
H2N-Tyr-D-hArg(Et)2-Leu-hArg(Et)2-Pro-D-Ala-NH2	–	82.9	98.4	18
